Here are results for 16 compounds from patent US4880007A, “Contrast agent for NMR scanning” (Amersham International PLC, priority 1985, dated 1989).

What all share (format): physicochemical
Series [1] in a line: T1 relaxation of phosphonate complexes at 200 MHz 25° C. The note with it: for T1: 25° C., 1 millimolar, water 3.3s.
Series [2] can be described thus: Relaxation (T1, T2) of complexes at 10 MHz 37° C., 10 mM. The note with it: for T1/T2: 10 millimolar solutions.
Series [3] in a line: Relaxation of hydroxy apatite-complex adducts at 10 MHz and 37° C. The note with it: for T1: HAP only 2.50s.
Series [4] is described as follows: T1 relaxation study of Gd complexes in aqueous solution at 200 MHz and 300° K. The note with it: 200 MHz.
[5] abbreviates: 10 MHz 37° C., 10 millimolar solutions (comparison MXDTMP/EDTMP).
[6] abbreviates: HAP adduct 10 mg/ml, 10 MHz 37° C., HAP only 0.97s.
[7] abbreviates: HAP adduct 10 mg/ml, 10 MHz 37° C.

Molecules are shown by their SMILES.

Regarding `O=P(O)(O)CN(Cc1cccc(CN(CP(=O)(O)O)CP(=O)(O)O)c1)CP(=O)(O)O.[Mn]` [MnMXDTMP, manganese metaxylene diamine tetramethylene phosphonate], the T1 in series [1] (manganese complexes) was 0.097 s; in series [2] (setting [5]) it was 10 ms; in series [2] (10 MHz, 37° C., 10 mM), 10 ms; in series [3] (setting [7]), 0.13 s. Moreover, the T1/T2 in series [2] (10 MHz 37° C.) was 1.1. Besides, the T2 in series [2] (setting [5]) is reported as 9 ms; in series [2] (10 MHz, 37° C., 10 mM), 9 ms; in series [3] (setting [6]), 0.11 s.
`O=P(O)(O)CN(CCN(CP(=O)(O)O)CP(=O)(O)O)CCN(CP(=O)(O)O)CP(=O)(O)O.[Gd]` [Gd.DTPMP]: the T1 is given as 144 ms in series [4] (0.5 mM), 45 ms in series [4] (1 mM), 38 ms in series [4] (2.5 mM) and 23 ms in series [4] (5 mM).
For the compound `O=C(O)CN(CP(=O)(O)O)CP(=O)(O)O.O=C(O)CN(CP(=O)(O)O)CP(=O)(O)O.[Mn]` [Mn(GDMP)2], the T1 in series [1] (manganese complexes) is 0.160 s; in series [3] (setting [7]), 0.24 s. The T2 in series [3] (setting [6]) was 0.24 s.
`O=P(O)(O)CN(CCN(CP(=O)(O)O)CP(=O)(O)O)CP(=O)(O)O.[Mn]` [MnEDTMP]: the T1/T2 in series [2] (10 MHz 37° C.) was determined as 1.1. The T1 is listed as 27 ms in series [2] (setting [5]) and 0.23 s in series [3] (setting [7]). Further, the T2 is reported as 24 ms in series [2] (setting [5]) and 0.13 s in series [3].
Consider `O=P(O)(O)CN(CCO)CP(=O)(O)O.O=P(O)(O)CN(CCO)CP(=O)(O)O.[Mn]` [Mn(AEDMP)2], for which the T1 in series [1] (manganese complexes) came to 0.007 s; in series [3] (setting [7]) it was 0.14 s. In addition, in series [3] (setting [6]), the T2 came out at 0.12 s.
Regarding `O=C(O)CN(CP(=O)(O)O)CP(=O)(O)O.O=C(O)CN(CP(=O)(O)O)CP(=O)(O)O.[Cr]` [Cr(GDMP)2], the values for the T1 in series [1] (chromium/gadolinium complexes) and in series [3] (setting [7]) were 0.89 s and 0.97 s, respectively. In series [3] (setting [6]), this compound came in with a T2 of 0.54 s.
With `O=C(O)CCCCCN(CP(=O)(O)O)CP(=O)(O)O.O=C(O)CCCCCN(CP(=O)(O)O)CP(=O)(O)O.[Cr]` [Cr(AHADMP)2], the T1 in series [1] (chromium/gadolinium complexes) is recorded as 1.04 s; in series [3] (setting [7]), 1.17 s. This compound also yielded a T2 in series [3] (setting [6]) of 0.55 s.
Take `O=C(O)CCCCCN(CP(=O)(O)O)CP(=O)(O)O.O=C(O)CCCCCN(CP(=O)(O)O)CP(=O)(O)O.[Mn]` [Mn(AHADMP)2]: the T1 in series [1] (manganese complexes) came out at 0.125 s; in series [3] (setting [7]), 0.26 s. Further, the T2 in series [3] (setting [6]) came to 0.18 s.
As to `O=C(O)CCCN(CP(=O)(O)O)CP(=O)(O)O.O=C(O)CCCN(CP(=O)(O)O)CP(=O)(O)O.[Mn]` [Mn(GABADMP)2], the T1 in series [1] (manganese complexes) is recorded as 0.072 s; in series [3] (setting [7]), 0.24 s. Also, the T2 in series [3] is on record as 0.16 s.
`O=P(O)(O)CN(CCO)CP(=O)(O)O.O=P(O)(O)CN(CCO)CP(=O)(O)O.[Cr]` [Cr(AEDMP)2]: the T1 amounted to 1.13 s in series [1] (chromium/gadolinium complexes) and 1.03 s in series [3] (setting [7]). In series [3] (setting [6]), this compound came in with a T2 of 0.53 s.
Take `O=P(O)(O)CN(Cc1cccc(CN(CP(=O)(O)O)CP(=O)(O)O)c1)CP(=O)(O)O.[Cr]` [CrMXDTMP]: the T1 in series [1] (chromium/gadolinium complexes) came to 0.55 s; in series [2] (10 MHz, 37° C., 10 mM), 160 ms; in series [3] (setting [7]), 0.98 s. The T2 in series [2] (10 MHz, 37° C., 10 mM) is on record as 130 ms; in series [3] (setting [6]) it was 0.56 s.
Take `O=C(O)CCCN(CP(=O)(O)O)CP(=O)(O)O.O=C(O)CCCN(CP(=O)(O)O)CP(=O)(O)O.[Cr]` [Cr(GABADMP)2]: the figures for the T1 in series [1] (chromium/gadolinium complexes) and in series [3] (setting [7]) were 0.91 s and 1.39 s, respectively. In series [3], the T2 was found to be 0.67 s.
As for `O=P(O)(O)CN(Cc1cccc(CN(CP(=O)(O)O)CP(=O)(O)O)c1)CP(=O)(O)O` [MXDTMP, Meta-xylene diamine tetramethylene phosphonate], the “NMR line shape / effect on T2 relaxation” value in series [1] (complexed to metal) was “sharp which implies less effect on T2 relaxation”.
`O=P(O)(O)CN(CCN(CP(=O)(O)O)CP(=O)(O)O)CP(=O)(O)O.[Gd]` [Gd.EDTMP]: the T1 came to 168 ms in series [4] (0.5 mM), 87 ms in series [4] (1 mM), 38 ms in series [4] (2.5 mM) and 18 ms in series [4] (5 mM).
With `O=P(O)(O)CN(Cc1cccc(CN(CP(=O)(O)O)CP(=O)(O)O)c1)CP(=O)(O)O.[Gd]` [GdMXDTMP], the T1 was found to be 0.064 s in series [1] (chromium/gadolinium complexes); 10 ms in series [2] (10 MHz, 37° C., 10 mM); 0.06 s in series [3] (setting [7]). Further, the T2 in series [2] (10 MHz, 37° C., 10 mM) is given as 7 ms; in series [3] (setting [6]), 0.06 s.
For the compound `O=P(O)(O)CN(CCCCCCN(CP(=O)(O)O)CP(=O)(O)O)CP(=O)(O)O.[Gd]` [Gd.HDTMP], the T1 in series [4] (0.5 mM) stood at 284 ms; in series [4] (1 mM), 142 ms; in series [4] (2.5 mM) it was 71 ms; in series [4] (5 mM), 30 ms.
